Laboratory results: patent US20240301050A1
Results are given in words; binding and its absence hold for the method and conditions named. Some entries that bind do so weakly or less than the wild type.

Molecular target: T1, human Lrig-1 protein expressed on the surface of T cells (human) (UniProt Q96JA1)
T1 sequence: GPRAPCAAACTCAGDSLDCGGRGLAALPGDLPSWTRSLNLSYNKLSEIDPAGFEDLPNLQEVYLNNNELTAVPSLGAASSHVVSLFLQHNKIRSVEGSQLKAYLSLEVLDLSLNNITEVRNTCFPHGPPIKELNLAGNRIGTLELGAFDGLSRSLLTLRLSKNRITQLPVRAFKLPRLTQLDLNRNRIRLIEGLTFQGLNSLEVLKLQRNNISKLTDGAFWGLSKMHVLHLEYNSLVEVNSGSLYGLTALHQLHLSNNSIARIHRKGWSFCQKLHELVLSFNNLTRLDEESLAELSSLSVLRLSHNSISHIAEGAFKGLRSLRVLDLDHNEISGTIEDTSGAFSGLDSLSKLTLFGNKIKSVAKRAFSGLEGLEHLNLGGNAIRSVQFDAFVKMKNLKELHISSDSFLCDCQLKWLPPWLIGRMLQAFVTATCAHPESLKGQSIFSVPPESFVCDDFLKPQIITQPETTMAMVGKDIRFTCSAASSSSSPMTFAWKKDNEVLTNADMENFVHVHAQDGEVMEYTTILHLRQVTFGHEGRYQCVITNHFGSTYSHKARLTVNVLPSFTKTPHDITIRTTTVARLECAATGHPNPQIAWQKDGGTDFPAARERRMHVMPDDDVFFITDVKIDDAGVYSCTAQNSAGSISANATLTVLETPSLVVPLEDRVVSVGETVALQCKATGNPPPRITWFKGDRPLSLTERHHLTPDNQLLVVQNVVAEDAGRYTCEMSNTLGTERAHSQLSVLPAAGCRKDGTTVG
Assay: selection from a human scFv library on T cells transfected with Lrig-1 (SEQ ID NO: 2)

B1: GTC310-01 (light and heavy chain amino acid sequences selected from the Human scFv library) (scFv, V domains shown)
VH: EVQLLESGGGLVQPGGSLRLSCAASGFTFSNYAMSWVRQAPGKGLEWVSVISHGGGSTYYADSVKGRFTISRDNSKNTLYLQMNSLRAEDTAVYYCARVISNCHLGVCYYSNGMDVWGQGTLVTVSS
VL: QLVLTQPPSVSAAPGQRVSISCSGSSSNIGDNYVSWYQQVPGSAPKLLIYDNNKRPSGIPDRFSASKSGTSATLGITGLQTGDEADYYCATWDGSLSAGRVFGGGTKLTVL
In the case of B1, the binding is reported as “binds”.
